These are yes or no findings as the source states them, for the method shown. In cells and extracts the contact can be indirect. Some binding calls cover weakened binding; strength is not graded here.

Protein sequences, listed by entry. Tags and fused reporters are not part of them. Residues count along the entry.
UniProt P19491, residues 22-883: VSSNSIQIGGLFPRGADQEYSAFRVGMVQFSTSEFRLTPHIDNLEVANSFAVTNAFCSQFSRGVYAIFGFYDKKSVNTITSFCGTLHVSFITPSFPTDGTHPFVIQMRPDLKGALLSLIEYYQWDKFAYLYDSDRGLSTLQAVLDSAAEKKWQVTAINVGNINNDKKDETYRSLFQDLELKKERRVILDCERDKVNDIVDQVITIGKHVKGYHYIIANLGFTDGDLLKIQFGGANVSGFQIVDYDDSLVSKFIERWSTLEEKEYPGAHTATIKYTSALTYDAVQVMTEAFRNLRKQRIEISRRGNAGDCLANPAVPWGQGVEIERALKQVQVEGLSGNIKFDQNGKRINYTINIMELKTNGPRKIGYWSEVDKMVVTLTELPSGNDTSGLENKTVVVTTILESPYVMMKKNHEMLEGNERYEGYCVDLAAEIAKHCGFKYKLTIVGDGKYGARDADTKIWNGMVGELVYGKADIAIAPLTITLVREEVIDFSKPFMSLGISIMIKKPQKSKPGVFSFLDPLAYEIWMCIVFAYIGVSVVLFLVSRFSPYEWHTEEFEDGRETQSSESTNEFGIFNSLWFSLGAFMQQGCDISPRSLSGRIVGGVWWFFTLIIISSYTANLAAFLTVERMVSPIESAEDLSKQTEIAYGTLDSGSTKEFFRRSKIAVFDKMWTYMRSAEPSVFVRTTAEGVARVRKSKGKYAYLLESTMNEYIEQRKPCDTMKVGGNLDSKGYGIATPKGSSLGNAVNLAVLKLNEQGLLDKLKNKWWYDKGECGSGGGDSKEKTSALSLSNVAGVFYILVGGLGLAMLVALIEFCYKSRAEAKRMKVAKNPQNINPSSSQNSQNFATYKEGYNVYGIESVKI
UniProt P19492, residues 23-888: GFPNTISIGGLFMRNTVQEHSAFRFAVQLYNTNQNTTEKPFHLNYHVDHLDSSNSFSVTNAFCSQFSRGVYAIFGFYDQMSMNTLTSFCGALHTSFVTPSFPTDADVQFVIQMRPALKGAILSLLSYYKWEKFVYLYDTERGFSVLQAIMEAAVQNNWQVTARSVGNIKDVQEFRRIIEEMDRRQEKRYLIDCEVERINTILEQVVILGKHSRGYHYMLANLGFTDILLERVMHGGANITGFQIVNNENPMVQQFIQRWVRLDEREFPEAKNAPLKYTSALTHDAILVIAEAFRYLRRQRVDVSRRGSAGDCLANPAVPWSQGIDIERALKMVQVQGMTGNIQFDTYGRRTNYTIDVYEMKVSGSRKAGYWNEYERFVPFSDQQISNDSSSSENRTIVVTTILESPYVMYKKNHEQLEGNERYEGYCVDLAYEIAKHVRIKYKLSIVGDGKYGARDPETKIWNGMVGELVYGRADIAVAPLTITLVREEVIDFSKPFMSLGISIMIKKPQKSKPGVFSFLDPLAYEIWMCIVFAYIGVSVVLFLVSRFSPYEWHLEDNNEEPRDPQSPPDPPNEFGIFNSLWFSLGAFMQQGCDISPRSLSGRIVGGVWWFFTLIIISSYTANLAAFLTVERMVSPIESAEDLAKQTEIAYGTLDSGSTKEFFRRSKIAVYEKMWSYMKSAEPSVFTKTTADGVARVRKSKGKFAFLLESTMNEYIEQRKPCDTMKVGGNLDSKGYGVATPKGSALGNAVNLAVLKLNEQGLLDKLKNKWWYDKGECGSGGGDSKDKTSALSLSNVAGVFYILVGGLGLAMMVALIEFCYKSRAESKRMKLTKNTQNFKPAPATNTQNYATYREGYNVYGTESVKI

This test has as its target AMPA receptor subunit GluA2 (rat (endogenous in primary hippocampal neurons)) (UniProt P19491). Description: proximity ligation; fixed primary rat hippocampal neurons, control or sAPPα (1 nM; 30 min or 2 h); two N-terminal antibodies without permeabilisation; cell-surface GluA2/3.

As for “AMPA receptor subunit GluA3 (from UniProt P19492 23-888)”, the binding result was “binds”.

(Values after publication PMC8047154.)
